Assay results from paper doi:10.1101/2025.01.15.633177 (bioRxiv, 2025).
Results are given in words; binding and its absence hold for the method and conditions named. Some results given as binding are weak or reduced against the parent protein; the word gives no strength.

Amino acid sequences for entries named in this document (tags omitted). Residues count along the entry.
UniProt Q9NYV4, 714-1063: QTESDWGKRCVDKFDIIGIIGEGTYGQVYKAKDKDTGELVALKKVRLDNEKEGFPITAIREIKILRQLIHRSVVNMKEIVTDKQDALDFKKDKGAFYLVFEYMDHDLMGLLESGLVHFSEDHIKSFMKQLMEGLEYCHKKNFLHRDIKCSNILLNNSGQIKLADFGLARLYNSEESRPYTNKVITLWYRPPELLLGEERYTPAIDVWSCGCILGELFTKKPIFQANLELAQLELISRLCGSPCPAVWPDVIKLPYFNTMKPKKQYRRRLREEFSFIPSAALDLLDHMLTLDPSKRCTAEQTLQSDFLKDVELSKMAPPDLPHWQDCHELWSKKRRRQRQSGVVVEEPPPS

Biological target: CDK12 kinase domain (amino acids 714-1063) (human) (UniProt Q9NYV4)
Experiment: co-expression and co-purification

B1: cyclin K cyclin box domains (amino acids 1-267) (domain or fragment, UniProt O75909 1-267)
chain: MKENKENSSPSVTSANLDHTKPCWYWDKKDLAHTPSQLEGLDPATEARYRREGARFIFDVGTRLGLHYDTLATGIIYFHRFYMFHSFKQFPRYVTGACCLFLAGKVEETPKKCKDIIKTARSLLNDVQFGQFGDDPKEEVMVLERILLQTIKFDLQVEHPYQFLLKYAKQLKGDKNKIQKLVQMAWTFVNDSLCTTLSLQWEPEIIAVAVMYLAGRLCKFEIQEWTSKPMYRRWWEQFVQDVPVDVLEDICHQILDLYSQGKQQMPH
binding: binds
